Results reported in article PMC3460915.
For some of these results: No signal at the amounts used counts as a negative. For some of these results: The exact form of at least one protein or probe is not confirmed. For some of these results: Weaker means in comparison with the reference protein, sequence or condition of that experiment. For some of these results: Protein sequences can lack the tags named with them.

What was measured:
Streptavidin (SA beads) = Streptavidin (SA beads) (UniProt P22629); test: SA-bead flow cytometry (allosteric beacon); conditions: no AGR2; 1x PBS (137 mM NaCl, 2.7 mM KCl, 10 mM Na2HPO4, 2.0 mM KH2PO4), pH 7.4, 37 C, 45 min, 200 uL; K+ varied in Fig 4; commercial protein; label: 3' FAM; folded or branched DNA
BSA [1] = biological target: BSA (UniProt P02769); test: SA-bead flow cytometry (allosteric beacon); conditions: 500 nM, SA beads; 1x PBS (137 mM NaCl, 2.7 mM KCl, 10 mM Na2HPO4, 2.0 mM KH2PO4), pH 7.4, 37 C, 45 min, 200 uL; K+ varied in Fig 4; commercial protein; label: 3' FAM; folded or branched DNA
Trypsin [2] = test: SA-bead flow cytometry (allosteric beacon); conditions: 500 nM, SA beads; 1x PBS (137 mM NaCl, 2.7 mM KCl, 10 mM Na2HPO4, 2.0 mM KH2PO4), pH 7.4, 37 C, 45 min, 200 uL; K+ varied in Fig 4; commercial protein; label: 3' FAM; folded or branched DNA
BSA [3] = biological target: BSA (UniProt P02769); test: flow cytometry bead binding; conditions: NHS-Sepharose coupled, 'no or little'; 1x PBS (137 mM NaCl, 2.7 mM KCl, 10 mM Na2HPO4, 2.0 mM KH2PO4), pH 7.4, 37 C, 45 min, 200 uL; K+ varied in Fig 4; commercial protein; label: 3' FAM; folded or branched DNA
Thrombin = test: flow cytometry bead binding; conditions: NHS-Sepharose coupled, 'no or little'; 1x PBS (137 mM NaCl, 2.7 mM KCl, 10 mM Na2HPO4, 2.0 mM KH2PO4), pH 7.4, 37 C, 45 min, 200 uL; K+ varied in Fig 4; commercial protein; label: 3' FAM; folded or branched DNA
Trypsin [4] = test: flow cytometry bead binding; conditions: NHS-Sepharose coupled, 'no or little'; 1x PBS (137 mM NaCl, 2.7 mM KCl, 10 mM Na2HPO4, 2.0 mM KH2PO4), pH 7.4, 37 C, 45 min, 200 uL; K+ varied in Fig 4; commercial protein; label: 3' FAM; folded or branched DNA
[5] = biological target: T1, GST-AGR2 (on GSH-Sepharose beads) (UniProt O95994); test: flow cytometry bead binding; conditions: no K+; 1x PBS (137 mM NaCl, 2.7 mM KCl, 10 mM Na2HPO4, 2.0 mM KH2PO4), pH 7.4, 37 C, 45 min, 200 uL; K+ varied in Fig 4; recombinant protein; label: 3' FAM; folded or branched DNA
T1 sequence (looked up, limits assumed): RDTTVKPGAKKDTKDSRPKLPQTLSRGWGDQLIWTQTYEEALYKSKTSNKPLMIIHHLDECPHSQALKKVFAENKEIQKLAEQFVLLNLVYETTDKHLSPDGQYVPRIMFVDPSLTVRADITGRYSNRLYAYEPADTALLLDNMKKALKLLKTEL

Sequence | binding result (Streptavidin (SA beads)) | binding result (BSA [1]) | binding result (Trypsin [2]) | binding result (BSA [3]) | binding result (Thrombin) | binding result (Trypsin [4]) | binding result [5]
CGACGCACCGATCGCAGGTTCGGGATTTTCGGGTGGGAGTTGTGGGGGGGGGTGGGAGGGTT [AGR2-aMB] | no binding | no binding | no binding | – | – | – | –
CGGGTGGGAGTTGTGGGGGGGGGTGGGAGGGTT [C14B1] | – | – | – | no binding | no binding | no binding | binds more weakly
